Article PMC4721963
No constants are given. Whether binding was seen depends on the method and setting. Binding seen in cells or lysates may run through a third protein. Some binding calls cover weakened binding; strength is not graded here.

Chains of the proteins cited; added tags and fusions are not shown.
UniProt Q13619: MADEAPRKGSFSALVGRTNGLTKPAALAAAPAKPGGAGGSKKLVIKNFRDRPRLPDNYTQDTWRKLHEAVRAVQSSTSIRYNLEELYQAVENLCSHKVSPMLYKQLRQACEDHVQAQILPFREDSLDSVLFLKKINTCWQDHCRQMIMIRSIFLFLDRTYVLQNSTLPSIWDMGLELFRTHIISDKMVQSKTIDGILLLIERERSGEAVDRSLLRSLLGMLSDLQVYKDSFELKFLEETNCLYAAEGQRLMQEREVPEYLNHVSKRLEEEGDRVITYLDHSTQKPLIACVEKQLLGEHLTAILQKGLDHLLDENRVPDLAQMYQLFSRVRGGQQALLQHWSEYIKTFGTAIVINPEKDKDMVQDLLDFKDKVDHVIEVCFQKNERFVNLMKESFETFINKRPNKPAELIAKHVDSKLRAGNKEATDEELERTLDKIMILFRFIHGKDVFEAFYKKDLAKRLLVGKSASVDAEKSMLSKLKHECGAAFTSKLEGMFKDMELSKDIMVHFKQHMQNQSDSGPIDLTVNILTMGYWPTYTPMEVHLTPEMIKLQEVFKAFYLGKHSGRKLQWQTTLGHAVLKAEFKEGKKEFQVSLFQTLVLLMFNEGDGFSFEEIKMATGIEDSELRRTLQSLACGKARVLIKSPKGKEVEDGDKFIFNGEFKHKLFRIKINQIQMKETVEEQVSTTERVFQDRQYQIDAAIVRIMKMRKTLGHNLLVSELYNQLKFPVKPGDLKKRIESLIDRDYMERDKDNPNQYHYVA
UniProt P38936: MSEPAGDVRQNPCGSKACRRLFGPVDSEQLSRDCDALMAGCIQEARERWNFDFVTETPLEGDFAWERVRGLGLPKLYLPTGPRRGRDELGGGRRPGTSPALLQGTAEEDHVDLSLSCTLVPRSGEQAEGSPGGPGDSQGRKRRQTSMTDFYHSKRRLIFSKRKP
UniProt P46527: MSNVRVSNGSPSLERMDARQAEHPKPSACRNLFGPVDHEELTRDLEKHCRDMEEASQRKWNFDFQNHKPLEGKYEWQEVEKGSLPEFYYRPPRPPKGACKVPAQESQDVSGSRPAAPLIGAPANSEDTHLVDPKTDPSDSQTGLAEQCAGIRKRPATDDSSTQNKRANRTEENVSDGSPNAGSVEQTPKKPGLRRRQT

Target: Myc-tagged Cul4a (UniProt Q13619)
Assay: co-IP; 293T cells transiently co-transfected with Myc-tagged Cul4a and Cdkn1a^cip1 (or p27^kip1); lysed 48 h after transfection; lysates immunoprecipitated with anti-Myc antibody, Western blot

binding | Substance
binds | Cdkn1a^cip1 (cyclin-dependent kinase inhibitor 1A) (from UniProt P38936 1-164)
no binding | p27^kip1 (from UniProt P46527 1-198)
